From PMC8803816
These are yes or no findings as the source states them, for the method shown. In cells and extracts the contact can be indirect. Here binding means that the protein was enriched with, or labelled near, the bait; the list need not be complete.

Amino acid sequences for entries named in this document (tags omitted).
UniProt Q9UDY8: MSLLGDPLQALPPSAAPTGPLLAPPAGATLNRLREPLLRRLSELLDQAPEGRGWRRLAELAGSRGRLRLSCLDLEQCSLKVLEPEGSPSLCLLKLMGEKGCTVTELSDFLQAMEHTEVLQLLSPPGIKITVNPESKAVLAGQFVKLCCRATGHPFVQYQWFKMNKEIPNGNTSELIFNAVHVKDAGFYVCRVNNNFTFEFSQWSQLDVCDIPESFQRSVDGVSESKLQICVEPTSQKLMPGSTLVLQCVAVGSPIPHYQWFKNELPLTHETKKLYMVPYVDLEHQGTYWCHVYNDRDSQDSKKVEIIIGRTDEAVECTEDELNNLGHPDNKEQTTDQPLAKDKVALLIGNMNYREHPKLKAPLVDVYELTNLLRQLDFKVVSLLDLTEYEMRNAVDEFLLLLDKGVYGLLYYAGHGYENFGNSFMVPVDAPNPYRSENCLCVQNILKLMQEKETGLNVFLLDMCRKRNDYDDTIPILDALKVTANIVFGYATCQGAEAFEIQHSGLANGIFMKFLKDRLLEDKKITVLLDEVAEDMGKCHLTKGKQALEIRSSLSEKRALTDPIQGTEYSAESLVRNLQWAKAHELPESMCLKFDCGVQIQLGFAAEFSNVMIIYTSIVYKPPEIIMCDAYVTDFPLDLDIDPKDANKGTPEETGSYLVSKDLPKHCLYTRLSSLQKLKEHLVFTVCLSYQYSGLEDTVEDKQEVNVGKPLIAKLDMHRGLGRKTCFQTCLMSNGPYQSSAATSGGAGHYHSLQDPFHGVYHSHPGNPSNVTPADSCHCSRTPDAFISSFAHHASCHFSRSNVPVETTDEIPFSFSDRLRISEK

Target: T1, B cell lymphoma/leukemia 10 (BCL10) (human (endogenous in Jurkat)) (UniProt O95999)
T1 sequence: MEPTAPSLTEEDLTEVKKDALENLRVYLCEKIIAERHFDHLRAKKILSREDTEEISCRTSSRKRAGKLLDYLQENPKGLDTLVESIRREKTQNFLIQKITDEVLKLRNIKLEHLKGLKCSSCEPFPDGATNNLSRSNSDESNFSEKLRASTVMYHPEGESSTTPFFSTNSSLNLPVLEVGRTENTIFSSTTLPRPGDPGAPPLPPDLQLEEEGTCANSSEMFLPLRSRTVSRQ
Assay: affinity purification with mass spectrometry; anti-BCL10 (C-17) IP from CK1α KO Jurkat T cells reconstituted with CK1α WT, untreated or P/I stimulated 20 min; 1% NP40 buffer; on-bead digestion, quantitative LC-MS/MS (n = 3)

Mucosa-associated lymphoid tissue protein 1 (MALT1) (from UniProt Q9UDY8 1-824)
binding: binds
